Values from PubChem BioAssay AID686943 (Drosophila RNAi Screening Center, 2013)
In all, the deposit lists about 23,000 reagents; shown is a random part of those with a known target gene and a result. 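Extra replicates exist only for a retested subset of genes; insulin dose and duration not given; both raised and lowered dpERK matter.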 Reagents against one gene are numbered here. Names joined by + are all predicted targets of the reagent. Not all columns of the deposit are shown. No sequences are given here. Not given: the amount of reagent, the time to read-out.

- Assay: 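Knockdowns that increase or decrease active ERK after insulin receptor stimulation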 (primary screen)
- Cell system: Drosophila S2R+ haemocyte-like cells expressing YFP-tagged ERK (Rolled)
- Reagent: long dsRNA against Drosophila genes
- Treatment: insulin stimulation versus unstimulated cells; dose and duration not given
- Measured: 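Per-plate z-scores of phospho-ERK immunostaining normalised to YFP-tagged ERK, measured with and without insulin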
- Direction: replicate 1, z-score of dpERK with insulin and replicate 2, z-score of dpERK with insulin: higher = more active ERK per ERK-YFP after insulin; replicate 1, z-score of dpERK under basal conditions: higher = more basal active ERK per ERK-YFP

Gene	reagent	replicate 1, z-score of dpERK with insulin	replicate 2, z-score of dpERK with insulin	replicate 1, z-score of dpERK under basal conditions
slo (slowpoke)	1	0.65	0.62	0.24
slo (slowpoke)	2	-0.52	-0.42	0.99
slo (slowpoke)	3	0.36	1.12	0.61
Vps53 (Vacuolar protein sorting 53)	1	1.31	1.16	0.27
CG32373	1	-0.16	0.14	1.15
FMRFa (FMRFamide)	1	-0.35	0.1	-0.13
CG30105	1	-0.3	0.34	0.71
COX8 (Cytochrome c oxidase subunit 8)	1	-0.63	-1.58	-1.43
ATP6 (retired record)	1	0.52	0.16	-0.23
CG9231	1	0.05	-0.46	0.05
Trhn (Tryptophan hydroxylase neuronal)	1	0.41	-0.26	1.17
CG32073	1	0.16	-0.16	2.26
CG32073	2	0.01	-0.2	-1.07
Oatp30B (Organic anion transporting polypeptide 30B)	1	0.64	0.1	0.2
Phf7 (PHD finger protein 7)	1	0.49	0.01	0.82
Vha100-4 (Vacuolar H[+] ATPase 100kD subunit 4)	1	-0.01	-0.33	-0.63
CG34316 + asRNA:CR43471	1	-0.24	0.06	0.6
Peritrophin-A (Peritrophin A)	1	0.32	0.13	-0.04
CG18477 + CG31780	1	-0.42	-0.24	-2.3
CG15012	1	-0.86	-0.81	0.34
CG11000	1	0.47	1.58	0.76
CG11000	2	-0.11	-0.18	-0.55
Mgat3	1	-0.2	-0.45	-0.55
Cp190 (Centrosomal protein 190kD)	1	0.39	0.54	-0.65
CG31467	1	0.43	0.16	0.12
Gal (beta galactosidase)	1	-0.08	-0.05	1.93
CG18547	1	1.02	0.09	0.37
Eig71Ei	1	0.39	0.78	0.8
CG3687	1	0.42	-0.65	1.3
CG6753	1	0.78	0.88	0.65
CG7341	1	-0.22	-0.05	0.04

Targets listed so far whose target name starts with V or v (2):
Gene	reagent	replicate 1, z-score of dpERK with insulin	replicate 2, z-score of dpERK with insulin	replicate 1, z-score of dpERK under basal conditions
Vps53 (Vacuolar protein sorting 53)	1	1.31	1.16	0.27
Vha100-4 (Vacuolar H[+] ATPase 100kD subunit 4)	1	-0.01	-0.33	-0.63

The results go on.
Gene	reagent	replicate 1, z-score of dpERK with insulin	replicate 2, z-score of dpERK with insulin	replicate 1, z-score of dpERK under basal conditions
Ge-1	1	1.69	1.08	-0.2
Prp38 (pre-mRNA processing factor 38)	1	-0.2	-0.86	0.48
Toll-9	1	0.85	-0.12	-0.49
Mst84Dc (Male-specific RNA 84Dc)	1	-0.42	0.14	0.01
Crtp (Caldesmon-related protein)	1	0.74	1.03	-0.09
cv-d (crossveinless d)	1	0.4	0.77	-0.67
cv-d (crossveinless d)	2	-0.06	0.43	1.33
cv-d (crossveinless d)	3	0.22	0.61	0.36
l(2)gd1 (lethal (2) giant discs 1)	1	0.04	0.78	-0.24
CG3430	1	-0.16	0.01	-0.31
CG31922	1	-0.71	0.85	0.14
Alp4 (Alkaline phosphatase 4)	1	0.88	-0.04	0.2
CG7985	1	0.1	-0.19	0.08
Oseg1 (Outer segment 1)	1	0.06	-0.96	0.12
CG6550	1	-0.36	-0.27	1.88
Bap170 (Brahma associated protein 170kD)	1	0.79	-0.15	0.65
Bap170 (Brahma associated protein 170kD)	2	-0.11	-0.1	-0.85
CG7458	1	0.69	0.63	-0.37
CG7458	2	0.41	0.91	0.13
CG43315	1	1.24	0.37	0.22
MsR1 (Myosuppressin receptor 1)	1	0.37	-0.37	0.92
put (punt)	1	-0.97	-0.23	-0.21
Ccdc56 + mtTFB1	1	0.25	-1.13	-0.2
Manf (Mesencephalic astrocyte-derived neurotrophic factor)	1	0.49	0.16	-0.17
nur (nemuri)	1	0.68	-0.22	-0.5
CG31752	1	0.57	0.54	-0.29
